According to patent US10688099B2, “Methods for modulating the amount of RNA transcripts” (PTC Therapeutics, Inc., priority 2013, dated 2020):
Further values from the same series stand in other lists.

System: RNA isoforms in PNN 1-46 SMA type I patient-derived fibroblasts
Assay: RNA Abundance Modulation (RNA isoform abundance, iFPM, HiSeq RNA sequencing)
Format: cell-based, human
Conditions: 3 μM
Experimental: Cells from a cell line of interest are cultured in conditions sufficient to yield the number of cells capable of generating enough RNA for subsequent sequencing steps. Cells from the tested cell line are contacted with a compound described herein.
To culture said cells, they are seeded, at appropriate concentrations in a volume of media in a cell culture container and incubated for 4, 5, 6, 7, 8, 9, 10, or more hours. A concentrated solution of compound in a vehicle (e.g., DMSO) is then added in sufficient volume to result in the intended final concentration of the compound, for example 100 nM, 500 nM, 1 μM, 5 μM, 10 μM, 15 μM, 20 μM, or more. The cells may also be treated with vehicle alone, as a control. A number of replicates of each concentration or control may be made (e.g., 2 replicates). The cells are then incubated at a constant temperature appropriate for cell culture of the particular cell line (e.g., 37° C.) for 6, 12, 18, 24, 48, or more hours. After incubation, the growth medium is removed and the cells are washed with the appropriate buffer (e.g., PBS). Cells are then removed from adherence to the cell culture container by treatment with a solution containing trypsin, and the trypsin subsequently quenched with the appropriate volume of buffer (e.g., DMEM-FBS). The cells are then pelleted with gentle centrifugation (e.g., ≤90×g centrifugal force) and resuspended in a buffer to lyse the cells for extraction of RNA. The cell lysates may then be frozen (e.g., at −80° C.) or, alternately, may immediately be used in a procedure to purify the RNA (e.g. by use of the RNEASY PLUS® minikit). The RNA from cell lysates is eluted in the appropriate volume of buffer (e.g., RNEASE-FREE H2O®). The resulting purified RNA may then be sequenced (e.g., using RNASeq) or analyzed using a human exon array (e.g., by GENECHIP® human exon array) to determine changes in the RNA levels in those cells treated with compound compared to those cells treated only with DMSO. The purified RNA may also be quantified by other methods known in the art.
Using the RNA data obtained from sequencing, exon array, or other methods, a statistical analysis can reveal changes in the RNA levels of compound-treated compared with control. For example, t-test p-values may be calculated for the data obtained through sequencing and exon array methods in order to compare compound-treated cells to those treated with the DMSO control. […] Analysis of the sequencing and exon array data may then also yield predictions about the cause of the aberrant amount of an RNA transcript in the cells (e.g., perturbation of RNA splicing, RNA transcription, or RNA stability). These predictions may be further confirmed by methods known in the art. For example, RT-PCR and RT-qPCR may be used to confirm the change in amount of RNA transcripts for one or more particular transcripts of interest.
Following the methods described above in Example 1, PNN 1-46 SMA type I patient-derived fibroblasts were treated with 300 nM or 3 μM Compounds 774 and 808 in 0.5% DMSO.
700,000 cells were seeded in 10 mL of medium (DMEM plus 10% FBS) in a T-75 flask. Cells were allowed to attach for at least 4 hrs, after which 50 μL of a 200× compound solution (100% DMSO) was added to each well, and the plate was incubated at 37° C. for 24 hrs.
At the end of the incubation period, the supernatant was removed and the cells where washed with PBS. TrypLE (Invitrogen) express solution was added (e.g. 1.5 mL per one T75 flask). The flasks were incubated for 3 to 5 min at 37° C. The trypsin was then quenched, e.g., by adding 10 mL DMEM-FBS.
Next, the cells were pelleted using gentle centrifugation without exceeding 90×g centrifugal force. The supernatant was removed and the cell pellet was re-suspended in 600 μL RLT buffer (the RLT buffer was supplemented with beta-mercaptoethanol according to the RNeasy protocol manual) by pipetting up and down until the pellet was completely dissolved […]

## CCc1nc(C)cn2nc(-c3cc(=O)n4cc(C5CCN(C)CC5)cc(C)c4n3)cc12 [Compound 774]
FYN AY429536
  L2abs (Cpd-DMSO): −1.67
  abs (Cpd-DMSO): 0 iFPM
  amp FC (x + 1): 1.32
  ave Cpd: 0 iFPM
FYN BC015055
  FC (x + 1): 0.4261
  L2FC (x + 1): −1.231
  L2abs (Cpd-DMSO): 8.34
  abs (Cpd-DMSO): 324 iFPM
  amp FC (x + 1): 2.35
  ave Cpd: 239 iFPM
FYN NM_002037
  FC (x + 1): 0.9584
  L2FC (x + 1): −0.061
  L2abs (Cpd-DMSO): 5.84
  abs (Cpd-DMSO): 57 iFPM
  amp FC (x + 1): 1.04
  ave Cpd: 1320 iFPM
FYN NM_153047
  FC (x + 1): 0.8952
  L2FC (x + 1): −0.160
  L2abs (Cpd-DMSO): 5.93
  abs (Cpd-DMSO): 61 iFPM
  amp FC (x + 1): 1.12
  ave Cpd: 521 iFPM
FYN NM_153048
  FC (x + 1): 1.0000
  L2FC (x + 1): 0.000
  L2abs (Cpd-DMSO): 0
  abs (Cpd-DMSO): 0 iFPM
  amp FC (x + 1): 1.00
  ave Cpd: 0 iFPM
GABPB1 AK303901
  FC (x + 1): 0.6876
  L2FC (x + 1): −0.540
  L2abs (Cpd-DMSO): 2.33
  abs (Cpd-DMSO): 5 iFPM
  amp FC (x + 1): 1.45
  ave Cpd: 10 iFPM
GABPB1 D13316
  FC (x + 1): 0.6120
  L2FC (x + 1): −0.708
  L2abs (Cpd-DMSO): 4.96
  abs (Cpd-DMSO): 31 iFPM
  amp FC (x + 1): 1.63
  ave Cpd: 48 iFPM
GABPB1 NM_002041
  FC (x + 1): 2.0203
  L2FC (x + 1): 1.015
  L2abs (Cpd-DMSO): 5.32
  abs (Cpd-DMSO): 40 iFPM
  amp FC (x + 1): 2.02
  ave Cpd: 78 iFPM
GABPB1 NM_005254
  FC (x + 1): 0.8504
  L2FC (x + 1): −0.234
  L2abs (Cpd-DMSO): 6.05
  abs (Cpd-DMSO): 66 iFPM
  amp FC (x + 1): 1.18
  ave Cpd: 375 iFPM
GABPB1 NM_016654
  FC (x + 1): 3.8139
  L2FC (x + 1): 1.931
  L2abs (Cpd-DMSO): 7.61
  abs (Cpd-DMSO): 195 iFPM
  amp FC (x + 1): 3.81
  ave Cpd: 263 iFPM
GABPB1 NM_016655
  FC (x + 1): 0.2239
  L2FC (x + 1): −2.159
  L2abs (Cpd-DMSO): 6.15
  abs (Cpd-DMSO): 71 iFPM
  amp FC (x + 1): 4.47
  ave Cpd: 19 iFPM
GABPB1 NM_181427
  FC (x + 1): 1.7862
  L2FC (x + 1): 0.837
  L2abs (Cpd-DMSO): 5.30
  abs (Cpd-DMSO): 40 iFPM
  amp FC (x + 1): 1.79
  ave Cpd: 89 iFPM
GALC AK302683
  FC (x + 1): 0.7522
  L2FC (x + 1): −0.411
  L2abs (Cpd-DMSO): −0.21
  abs (Cpd-DMSO): 1 iFPM
  amp FC (x + 1): 1.33
  ave Cpd: 2 iFPM
GALC D25284
  FC (x + 1): 0.4748
  L2FC (x + 1): −1.075
  L2abs (Cpd-DMSO): 0.59
  abs (Cpd-DMSO): 2 iFPM
  amp FC (x + 1): 2.11
  ave Cpd: 0 iFPM
GALC NM_000153
  FC (x + 1): 0.1615
  L2FC (x + 1): −2.631
  L2abs (Cpd-DMSO): 8.63
  abs (Cpd-DMSO): 395 iFPM
  amp FC (x + 1): 6.19
  ave Cpd: 75 iFPM
GALC NM_001201401
  FC (x + 1): 1.0000
  L2FC (x + 1): 0.000
  L2abs (Cpd-DMSO): 0
  abs (Cpd-DMSO): 0 iFPM
  amp FC (x + 1): 1.00
  ave Cpd: 0 iFPM
GALC NM_001201402
  FC (x + 1): 31.6822
  L2FC (x + 1): 4.986
  L2abs (Cpd-DMSO): 4.94
  abs (Cpd-DMSO): 31 iFPM
  amp FC (x + 1): 31.68
  ave Cpd: 31 iFPM
GAS7 AK293755
  FC (x + 1): 1.0000
  L2FC (x + 1): 0.000
  L2abs (Cpd-DMSO): 0
  abs (Cpd-DMSO): 0 iFPM
  amp FC (x + 1): 1.00
  ave Cpd: 0 iFPM
GAS7 AK294829
  FC (x + 1): 1.5112
  L2FC (x + 1): 0.596
  L2abs (Cpd-DMSO): 6.32
  abs (Cpd-DMSO): 80 iFPM
  amp FC (x + 1): 1.51
  ave Cpd: 235 iFPM
GAS7 NM_003644
  FC (x + 1): 0.0159
  L2FC (x + 1): −5.978
  L2abs (Cpd-DMSO): 5.95
  abs (Cpd-DMSO): 62 iFPM
  amp FC (x + 1): 63.03
  ave Cpd: 0 iFPM
GAS7 NM_201433
  FC (x + 1): 0.8704
  L2FC (x + 1): −0.200
  L2abs (Cpd-DMSO): 6.85
  abs (Cpd-DMSO): 115 iFPM
  amp FC (x + 1): 1.15
